Source: doi:10.64898/2025.12.15.694336
No constants are given. Whether binding was seen depends on the method and setting. Binding seen in cells or lysates may run through a third protein. Tags and fused reporters may be left off the sequences shown.

Assays:
[1] = molecular target: Flag::ERGI-2 (C. elegans); assay: co-IP
[2] = molecular target: Flag::ERGI-3 (C. elegans); assay: co-IP

binding [1]: no binding
binding [2]: no binding
B1: IRE-1::HA (protein, UniProt Q09499 22-967)
chain: ISTPGFRNDHESIGDDEEKTSSTILVSTIDGRLRALDSETGEIKWTLQEEPVLRSPSAVKQGFTFLPNPLDGSLYVLKNSSLKKLPFNIPQLVHASPCKGNDGILYAGSKKDVWFGIDPKTGLKVETLSSASADRICPANQKQTIFLGRTEYRVSMFDEKNRGKTWNATFNDYSAHLLPEVNTWPFKHYASSSHGYILTFDRETGEMRWEQDLKQPVVALYLLRDDGLHKLPFEVMGKETMENVAKNIFTVDQWPTVLGVNAADPQTTSLTNQFFPALFVGESSFGLYAIEALVDHQTITYSPKLLGPPLLEGPAPIALTEMEKEEYLPPRRPIIRNIPPSITHKTSDGEYLLLGYHDRPMMTMATIIPTRYPVPGPHKAIGSTIERPPPQLLGPVEPQKHEDTSFILLLLNNHPIPFYATLVTMFALLLTVIWQCGRQWDQQKSTSRMDSFEIVNNPGESRSAQTSKQSNRGSFGWANRKIEIPEGWMAVGSKLMYSPSDILGTGCEGTVVYRGTFDGREVAVKRVVSEFVKFAHREADLLRESDTHPHVIRYFCMESDSQFRYLALELCIASLNDYVEQKEVQQNVTIALRDIMKQATDGLAHLHASKIVHRDMKPQNVLITMASQRGEMRAVISDFGLCKRVQPGKNSISRGIASGLAGTDGWIAPEVLISASTSYPVDIFSLGCIFYYVLTSGTHPFGKSLHRQANIVNGEYTLNKLADLDDWSLADDLISSMLNVEPLHRLTADAVLNHPFFWTSEKRLAYFSDVSDRVEKEEDNSPVVRRIETDARIVVCGGWREKICDALKEDLRKFRTYKSFSVRDLLRAMRNKKHHYRELPEDVRQSLGDIPDQFLHYFTSRFPRLLLHVYKATEYCSGEAVFKRYYSDDVRARMYPIVEEEERVRKKIKEEMANEVWARAPKPVEQRTPLKLDKRNIKKKSNPNTD
